Among the data in article PMC5589630 are binding values, retold here.

These are yes or no findings as the source states them, for the method shown. In cells and extracts the contact can be indirect.

For the assay, the target named is T1, CLOCK protein (in the test of the PIWIL2 deletion mutants) (UniProt O15516).
T1 sequence: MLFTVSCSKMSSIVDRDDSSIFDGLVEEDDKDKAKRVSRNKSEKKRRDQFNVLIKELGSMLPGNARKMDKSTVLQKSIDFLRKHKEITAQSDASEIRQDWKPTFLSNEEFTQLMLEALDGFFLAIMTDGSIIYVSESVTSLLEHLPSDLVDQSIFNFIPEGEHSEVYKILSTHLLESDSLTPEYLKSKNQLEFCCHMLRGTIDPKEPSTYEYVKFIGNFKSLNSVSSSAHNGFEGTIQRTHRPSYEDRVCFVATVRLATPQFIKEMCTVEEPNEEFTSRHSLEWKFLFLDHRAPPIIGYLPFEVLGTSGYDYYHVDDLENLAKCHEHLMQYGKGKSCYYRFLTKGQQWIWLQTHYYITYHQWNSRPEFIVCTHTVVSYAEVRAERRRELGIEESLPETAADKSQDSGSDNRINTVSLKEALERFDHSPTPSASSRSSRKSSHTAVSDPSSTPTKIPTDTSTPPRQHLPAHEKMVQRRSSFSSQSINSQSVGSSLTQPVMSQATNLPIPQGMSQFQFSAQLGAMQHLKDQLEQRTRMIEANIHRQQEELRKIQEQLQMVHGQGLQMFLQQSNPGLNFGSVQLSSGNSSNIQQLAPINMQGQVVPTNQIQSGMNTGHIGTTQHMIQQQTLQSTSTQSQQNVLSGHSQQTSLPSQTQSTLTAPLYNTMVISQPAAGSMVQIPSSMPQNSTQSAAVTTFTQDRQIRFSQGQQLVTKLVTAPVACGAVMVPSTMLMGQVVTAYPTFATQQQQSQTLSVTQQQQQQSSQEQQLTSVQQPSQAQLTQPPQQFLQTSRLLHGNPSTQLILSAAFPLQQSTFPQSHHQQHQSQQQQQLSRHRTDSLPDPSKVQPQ
Kind of assay: co-IP; PIWIL2 deletion mutants tested for binding to CLOCK (Figure 2H); cells and precipitating antibody not stated.

Regarding “PIWIL2 mutant with a deletion of the PIWI conserved domain (domain or fragment)”, the binding result is given as “no binding”.
